Data as given in PubChem BioAssay AID1224830 (NIAID, 2016)
In all, the deposit lists about 18,000 reagents; below is an unselected part. About 2,900 of them (16%) were called active. 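Calls are made per well; low scores hint the gene aids the LPS response, high scores that it dampens it.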 Repeated entries: four replicate wells of each siRNA pool.

Assay: 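Host factors that control LPS-induced TNF expression in human macrophages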 (primary screen)
System: human THP-1 monocytic leukaemia cells, TNF dual-luciferase reporter clone, PMA-differentiated to macrophage-like cells
Knock-down reagent: siRNA pool against human genes, 50 nM
Duration: LPS for 4 h, given about 3 days after siRNA transfection
Treatment: bacterial LPS (TLR4 ligand), 10 ng/ml
Detection: 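TNF firefly reporter luminescence divided by renilla, normalised to the plate median, then turned into a robust z-score for each replicate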
Scale: TNF reporter robust z-score: higher = stronger TNF reporter response to LPS
Hit rule: 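a well is active when its z-score exceeds 2.8 or falls below -1.5; control wells carry no call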

SPRR2E (small proline rich protein 2E) showed TNF reporter robust z-score 0.18; inactive.
SPRR2E (small proline rich protein 2E) scored TNF reporter robust z-score 0.3; inactive.
SPRR2E (small proline rich protein 2E) gave TNF reporter robust z-score 1.27; inactive.
With knock-down of SPRR2E (small proline rich protein 2E), the screen gave TNF reporter robust z-score 0.17; inactive.
For TSTD2 (thiosulfate sulfurtransferase like domain containing 2), the values are TNF reporter robust z-score 1.85; inactive.
After knock-down of TSTD2 (thiosulfate sulfurtransferase like domain containing 2) the results were TNF reporter robust z-score 0.4; inactive.
With knock-down of TSTD2 (thiosulfate sulfurtransferase like domain containing 2), the screen gave TNF reporter robust z-score 0.75; inactive.
Knock-down of TSTD2 (thiosulfate sulfurtransferase like domain containing 2) gave: TNF reporter robust z-score 0.93; inactive.
After knock-down of CHMP2A (charged multivesicular body protein 2A) the results were TNF reporter robust z-score -1.25; inactive.
After knock-down of CHMP2A (charged multivesicular body protein 2A) the results were TNF reporter robust z-score -0.91; inactive.
CHMP2A (charged multivesicular body protein 2A) showed TNF reporter robust z-score -1.78; active.
Depletion of CHMP2A (charged multivesicular body protein 2A) resulted in: TNF reporter robust z-score -1.14; inactive.
FGD3 (FYVE, RhoGEF and PH domain containing 3) scored TNF reporter robust z-score -0.98; inactive.
FGD3 (FYVE, RhoGEF and PH domain containing 3) showed TNF reporter robust z-score -0.47; inactive.
Knock-down of FGD3 (FYVE, RhoGEF and PH domain containing 3) resulted in: TNF reporter robust z-score -0.55; inactive.
FGD3 (FYVE, RhoGEF and PH domain containing 3) showed TNF reporter robust z-score -0.46; inactive.
Knock-down of TSLP (thymic stromal lymphopoietin) gave: TNF reporter robust z-score -0.58; inactive.
For TSLP (thymic stromal lymphopoietin) the deposit lists TNF reporter robust z-score -0.45; inactive.
Knock-down of TSLP (thymic stromal lymphopoietin) gave: TNF reporter robust z-score -0.86; inactive.
Knock-down of NCAN (neurocan) came out at: TNF reporter robust z-score 0.57; inactive.
NCAN (neurocan) scored TNF reporter robust z-score -0.56; inactive.
After knock-down of NCAN (neurocan), the screen gave TNF reporter robust z-score 0.36; inactive.
NCAN (neurocan) gave TNF reporter robust z-score 1.26; inactive.
Depletion of KLKB1 (kallikrein B1) came out at: TNF reporter robust z-score -0.24; inactive.
Knock-down of KLKB1 (kallikrein B1) came out at: TNF reporter robust z-score 0.36; inactive.
Knock-down of KLKB1 (kallikrein B1) gave: TNF reporter robust z-score 1.05; inactive.
KLKB1 (kallikrein B1) showed TNF reporter robust z-score 0.21; inactive.
After knock-down of AKR7A3 (aldo-keto reductase family 7 member A3) the results were TNF reporter robust z-score -0.4; inactive.
With knock-down of AKR7A3 (aldo-keto reductase family 7 member A3), the screen gave TNF reporter robust z-score 0.47; inactive.
With knock-down of AKR7A3 (aldo-keto reductase family 7 member A3), the screen gave TNF reporter robust z-score -1.6; active.
After knock-down of AKR7A3 (aldo-keto reductase family 7 member A3), the record shows TNF reporter robust z-score -0.73; inactive.
For TEKTL1 (tektin like 1), the entry reads TNF reporter robust z-score 0.06; inactive.
Knock-down of TEKTL1 (tektin like 1) gave: TNF reporter robust z-score -0.2; inactive.
TEKTL1 (tektin like 1) showed TNF reporter robust z-score 0.52; inactive.
For TEKTL1 (tektin like 1), the entry reads TNF reporter robust z-score 1.54; inactive.
With knock-down of KCNAB2, the record shows TNF reporter robust z-score -0.13; inactive.
KCNAB2 gave TNF reporter robust z-score 1.34; inactive.
Depletion of KCNAB2 gave: TNF reporter robust z-score 0.7; inactive.
Knock-down of KCNAB2 came out at: TNF reporter robust z-score 4.69; active.
With knock-down of NRAP (nebulin related anchoring protein), the record shows TNF reporter robust z-score 0.27; inactive.
NRAP (nebulin related anchoring protein) gave TNF reporter robust z-score 0.17; inactive.
For NRAP (nebulin related anchoring protein) the deposit lists TNF reporter robust z-score -0.34; inactive.
For NRAP (nebulin related anchoring protein), the entry reads TNF reporter robust z-score 0.79; inactive.
HOXD10 (homeobox D10) showed TNF reporter robust z-score -1.04; inactive.
Depletion of HOXD10 (homeobox D10) gave: TNF reporter robust z-score -0.3; inactive.
Knock-down of HOXD10 (homeobox D10) gave: TNF reporter robust z-score -0.27; inactive.
After knock-down of HOXD10 (homeobox D10), the screen gave TNF reporter robust z-score 0.83; inactive.
